How the values were obtained:
[1] = Pretargeting: 125-I-hMN-14 × 734 bsAb, 48 h later 111-In-indium-IMP-156, biodistribution; assay type: in vivo, nude mice; conditions: female, nude (Taconic NCRNU), mouse, 3 h post peptide
[2] = Clearance of 99m-Tc-IMP-192 in BALB/c mice; assay type: in vivo; conditions: mouse, total radioactivity
Description: In vitro stability of the Tc-99m complex of this peptidyl chelate was established by incubations in saline, fresh human serum and 10 mM cysteine for up to 20 h. In vivo stability was examined by analysis of urine collected from a mouse injected with 99m-Tc-IMP-192 in a pretargeting experiment.

[3] = Pretargeting: 125-I-hMN-14 × 734 bsAb, 24 h later 99m-Tc-IMP-192, biodistribution; assay type: in vivo, Nude mice; conditions: female, NCRNU nude, mouse, total radioactivity, 24 h post peptide

CC(=O)N[C@@H](Cc1ccccc1)C(=O)N[C@@H](CCCCNC(=O)CN(CCN(CCN(CC(=O)O)CC(=O)O)CC(=O)O)CC(=O)O)C(=O)N[C@@H](Cc1ccc(O)cc1)C(=O)N[C@@H](CCCCNC(=O)CN(CCN(CCN(CC(=O)O)CC(=O)O)CC(=O)O)CC(=O)O)C(N)=O [IMP 156, Ac-Phe-Lys(DTPA)-Tyr-Lys(DTPA)-NH2] showed a tissue uptake at 3 h ([1]; Liver) of 0.5 ± 0.09 %ID/g and a tissue uptake at 3 h ([1]; Spleen) of 0.5 ± 0.1 %ID/g.
CC(=O)N[C@@H](CCCCNC(=O)CN(CCN(CCN(CC(=O)O)CC(=O)O)CC(=O)O)CC(=O)O)C(=O)N[C@@H](Cc1ccc(O)cc1)C(=O)N[C@@H](CCCCNC(=O)CN(CCN(CCN(CC(=O)O)CC(=O)O)CC(=O)O)CC(=O)O)C(=O)N[C@@H](CCCCNC(=O)[C@H](CS)NC(=O)C=NNC(N)=S)C(N)=O [IMP 192, Ac-Lys(DTPA)-Tyr-Lys(DTPA)-Lys(Tscg-Cys)-NH2] gave a tissue uptake at 1 h ([2]; large intestine, Lg.Int.) of 0.41 ± 0.54 %ID/g, a tissue uptake at 1 h ([2]; Stomach) of 0.39 ± 0.18 %ID/g and a tissue uptake at 2 h ([2]; Stomach, 2 h) of 0.42 ± 0.18 %ID/g. The tissue uptake at 24 h ([3]; Liver) was 0.4 ± 0.08 %ID/g and the tissue uptake at 24 h ([3]; Spleen) was 0.4 ± 0.2 %ID/g.

Source: patent US20060140858A1, “Drug pre-targeting by means of bi-specific antibodies and hapten constructs comprising a carrier peptide and the active agent(s)” (Immunomedics, Inc., priority 2002, published 2006)
